Substitutions are numbered along the chain they refer to. No constants are given. Whether binding was seen depends on the method and setting. Some entries that bind do so weakly or less than the wild type.

The chains behind the UniProt entries cited, without tags or fusion partners. Residues count along the entry.
UniProt P24394, residues 26-232: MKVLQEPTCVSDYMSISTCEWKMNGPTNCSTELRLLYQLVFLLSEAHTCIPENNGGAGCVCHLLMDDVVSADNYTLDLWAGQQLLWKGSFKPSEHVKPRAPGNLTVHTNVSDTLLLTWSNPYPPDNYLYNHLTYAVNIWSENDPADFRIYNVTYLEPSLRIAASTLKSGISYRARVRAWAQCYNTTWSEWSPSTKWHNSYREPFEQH

For the test, the target named is hIL-4R alpha-ECD-Fc (human) (UniProt P24394). The experiment in a line: ELISA, plate coated with 1 ug/ml hIL-4R alpha-ECD-Fc.

B1: murine anti-hIL-4R alpha monoclonal antibody 120 (antibody, V domains shown)
VH: EVQLVESGGGLVKPGGSLKLSCAASGFTFSDYGMHWVRQAPEKGLEWVAYISSGSTTIYYADTVKGRFTISRDNGKNTLFLQMTSLRSEDTAMYYCARISTVVAKRYAMDYWGQGTSVTVSS
VL: DIQMTQTASSLSASLGDRVTISCRASQDISNYLNWYQQKPDGTVKLLIYYTSRLHSGVPSRFSGSGSGTDYSLTISNLEQEDIATYFCQQINALPLTFGAGTKLELK
Take B1: the binding result is “binds”.

B2: murine anti-hIL-4R alpha monoclonal antibody 54 (antibody, V domains shown)
VH: EVQLQQSGPELVKPGASVKIPCKASGYTFTDYNMDWVKQSHGKSLEWIGDINPNNGNILFNQKFKGKATLTVDKSSSTAYVELRSLTSEDTAVYYCGRGGLRRRGFMDYWGQGTSVTVSS
VL: QIVLSQSPAILSASPGEKVTMTCRASSSVSYMHWYQQKPGSSPKPWIYAASNLASGVPARFSGSGSGTSYSLTISRVEAEDAATYYCQQWSSNPPTFGGGTKLEIK
As to B2, the binding entry was “binds”.

B3: murine anti-hIL-4R alpha monoclonal antibody 57 (antibody, V domains shown)
VH: B2 VH
VL: B2 VL
In the case of B3, the binding entry was “binds”.

B4: murine anti-hIL-4R alpha monoclonal antibody 81 (antibody, V domains shown)
VH: B2 VH with E1D, V12L, K23Q, S44N, D50N, N57G, I58T, L59F, F60Y, V81M
VL: B2 VL with S30I, M32I, S92V
As for B4, the binding entry is recorded as “binds”.

B5: murine anti-hIL-4R alpha monoclonal antibody 75 (antibody, V domains shown)
VH: B2 VH
VL: B2 VL
B5: the binding result is “binds”.

For the origin of these results see patent US20230203172A1.
